The values that follow come from patent publication US12077599 (SEOUL NATIONAL UNIVERSITY R AND DB FOUNDATION NATIONAL …, dated 2024).

By UniProt entry, the sequences of proteins in these tests, tags left out. Residues count along the entry.
UniProt P38646, residues 47-679: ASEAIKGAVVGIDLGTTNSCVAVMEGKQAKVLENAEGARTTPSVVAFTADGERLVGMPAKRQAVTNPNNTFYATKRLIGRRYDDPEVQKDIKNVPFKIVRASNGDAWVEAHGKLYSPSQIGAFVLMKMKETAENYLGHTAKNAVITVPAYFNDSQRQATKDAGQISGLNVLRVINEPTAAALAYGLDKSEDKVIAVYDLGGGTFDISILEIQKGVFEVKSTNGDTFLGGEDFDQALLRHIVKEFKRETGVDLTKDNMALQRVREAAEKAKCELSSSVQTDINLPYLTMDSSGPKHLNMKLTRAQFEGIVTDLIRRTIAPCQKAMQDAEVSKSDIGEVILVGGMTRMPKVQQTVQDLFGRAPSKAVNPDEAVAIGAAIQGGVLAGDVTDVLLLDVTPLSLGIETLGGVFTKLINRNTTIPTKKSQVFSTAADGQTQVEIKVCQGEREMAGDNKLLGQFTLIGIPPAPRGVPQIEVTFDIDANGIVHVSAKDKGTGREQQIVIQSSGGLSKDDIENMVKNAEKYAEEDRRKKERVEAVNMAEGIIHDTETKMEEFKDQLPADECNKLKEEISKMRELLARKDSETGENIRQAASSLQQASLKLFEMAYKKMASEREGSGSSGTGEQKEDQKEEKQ
UniProt P11021, residues 19-654: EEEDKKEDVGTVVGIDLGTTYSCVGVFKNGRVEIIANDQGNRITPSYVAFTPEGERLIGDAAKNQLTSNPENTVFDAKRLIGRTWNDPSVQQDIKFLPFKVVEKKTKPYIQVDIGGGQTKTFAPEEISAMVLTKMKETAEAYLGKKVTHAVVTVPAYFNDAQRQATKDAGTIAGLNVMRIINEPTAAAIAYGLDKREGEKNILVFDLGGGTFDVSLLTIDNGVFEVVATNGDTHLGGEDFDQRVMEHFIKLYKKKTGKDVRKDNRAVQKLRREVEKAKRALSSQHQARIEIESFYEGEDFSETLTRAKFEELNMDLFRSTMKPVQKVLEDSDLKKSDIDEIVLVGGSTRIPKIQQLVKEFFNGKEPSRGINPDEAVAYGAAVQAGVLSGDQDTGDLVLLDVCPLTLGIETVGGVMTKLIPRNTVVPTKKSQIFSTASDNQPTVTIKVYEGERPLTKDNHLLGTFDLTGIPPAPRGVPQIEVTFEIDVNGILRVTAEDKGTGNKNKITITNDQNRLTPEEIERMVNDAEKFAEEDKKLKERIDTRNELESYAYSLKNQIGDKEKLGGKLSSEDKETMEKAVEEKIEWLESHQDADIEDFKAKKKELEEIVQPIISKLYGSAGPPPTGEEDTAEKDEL

No constants are given. Whether binding was seen depends on the method and setting. Some binding calls cover weakened binding; strength is not graded here. Sequences can lack the tags named with a protein.

For assay [1], the target named is GRP75 (Enzo Life Sciences) (UniProt P38646). As to the kind of experiment: ELISA, GRP75 coated, scFv-rFc at 0 to 2000 ng/ml, HRP anti-rabbit IgG.
The target of assay [2] is 78 kDa glucose-regulated protein (GRP78), from HEK293T cell lysate (human) (UniProt P11021). As to the kind of experiment: immunoprecipitation with 3B20 scFv-rFc from HEK293T lysates, LC-MS of the 70 kDa band.

B1: 3B20 scFv-rFc fusion protein (Fc fusion, rabbit)
chain: LTQPSSVSANLGGTVKITCSGGSYGYGWYQQKAPGSAPVTVIYDNTNRPSDIPSRFSGSKSGSTGTLTITGVQVEDEAVYYCGSADSSSIATFGAGTTLTVLGQSSRSSGGGGSSGGGGSAVTLDESGGGLQTPGGTLSLVCKASGFSFSDRGMHWMRQAPGKGLEYVGAISGDGYITHYGAAVKGRATISRDNGQSTVRLQLNNLRAEDTATYYCTRGGGGNIDAWGHGTEVIVSSTS
notes: domain: fragment crystallizable region Fc (rFc); scFv fused with rabbit Fc, expressed from modified pCEP4; also called 3B20-rFc; scFv(3B20)-rFc fusion protein; not shown: rabbit antibody fragment crystallizable region Fc (rFc)
With B1, the binding entry in assay [1] and in assay [2] was “binds” each time.
